Experimental data taken from paper PMC5044832.
Results are given in words; binding and its absence hold for the method and conditions named. In cells and extracts the contact can be indirect. Tags and fused reporters may be left off the sequences shown.

By UniProt entry, the sequences of proteins in these tests, tags left out.
UniProt F5HCV3: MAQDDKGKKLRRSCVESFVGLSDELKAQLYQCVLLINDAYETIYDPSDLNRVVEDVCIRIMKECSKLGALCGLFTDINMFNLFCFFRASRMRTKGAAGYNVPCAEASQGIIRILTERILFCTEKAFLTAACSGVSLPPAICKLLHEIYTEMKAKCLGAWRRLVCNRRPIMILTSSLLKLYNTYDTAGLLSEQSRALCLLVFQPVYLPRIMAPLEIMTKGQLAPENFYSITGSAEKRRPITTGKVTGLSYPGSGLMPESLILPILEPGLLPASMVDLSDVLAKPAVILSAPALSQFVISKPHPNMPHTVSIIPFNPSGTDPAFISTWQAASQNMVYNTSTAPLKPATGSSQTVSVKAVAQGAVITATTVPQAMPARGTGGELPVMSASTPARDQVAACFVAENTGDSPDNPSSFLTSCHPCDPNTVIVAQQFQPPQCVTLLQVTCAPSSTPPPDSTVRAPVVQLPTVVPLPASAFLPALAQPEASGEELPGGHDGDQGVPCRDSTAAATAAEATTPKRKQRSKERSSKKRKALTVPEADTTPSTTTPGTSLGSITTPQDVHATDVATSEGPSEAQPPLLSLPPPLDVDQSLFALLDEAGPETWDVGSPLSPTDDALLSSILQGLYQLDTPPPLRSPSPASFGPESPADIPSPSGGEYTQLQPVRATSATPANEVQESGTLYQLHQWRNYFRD

Target: replication and transcription activator (RTA) (Kaposi's sarcoma-associated herpesvirus (KSHV)) (UniProt F5HCV3)
Assay: co-IP

B1: AT-rich interacting domain containing 3B (ARID3B), C-terminally FLAG-tagged (protein, UniProt Q8IVW6 1-561)
chain: MEPLQQQQQQQQQQQKQPHLAPLQMDAREKQGQQMREAQFLYAQKLVTQPTLLSATAGRPSGSTPLGPLARVPPTAAVAQVFERGNMNSEPEEEDGGLEDEDGDDEVAEVAEKETQAASKYFHVQKVARQDPRVAPMSNLLPAPGLPPHGQQAKEDHTKDASKASPSVSTAGQPNWNLDEQLKQNGGLAWSDDADGGRGREISRDFAKLYELDGDPERKEFLDDLFVFMQKRGTPINRIPIMAKQILDLYMLYKLVTEKGGLVEIINKKIWREITKGLNLPTSITSAAFTLRTQYMKYLYAYECEKKALSSPAELQAAIDGNRREGRRPSYSSSLFGYSPAAATAAAAAGAPALLSPPKIRFPILGLGSSSGTNTSSPRISPATTLRKGDGAPVTTVPVPNRLAVPVTLASQQAGTRTAALEQLRERLESGEPAEKKASRLSEEEQRLVQQAFQRNFFSMARQLPMKIRINGRAEDRAEASAAALNLTTSSIGSINMSVDIDGTTYAGVLFAQKPVVHLITGSAPQSLGSSASSSSSSHCSPSPTSSRGTPSAEPSTSWSL
B1 was tested, and the binding was “no binding”.
